Laboratory results from the supplement of paper PMC12823440, “Inhibitors supercharge kinase turnover through native proteolytic circuits” (Nature, 2025).
Structures can show the parent of a compound that is named as a salt. The list shows a part of the results. The calls rarely recur for the same compound in another form.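 In K562 cells expressing nanoluciferase-fused kinases, luminescence was recorded at 4 h intervals between 2 and 18 h, normalized as percent of control with DMSO at 100% and a positive control at 0%. A significant (2 sigma) signal drop marks a time point as decreased. The authors' rule for a hit is not shown and takes in more than the number of time points.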

Chains of the proteins cited; added tags and fusions are not shown. Lines headed by an entry give the natural chain unless they say otherwise; changes in a name come on top.
UniProt Q06187: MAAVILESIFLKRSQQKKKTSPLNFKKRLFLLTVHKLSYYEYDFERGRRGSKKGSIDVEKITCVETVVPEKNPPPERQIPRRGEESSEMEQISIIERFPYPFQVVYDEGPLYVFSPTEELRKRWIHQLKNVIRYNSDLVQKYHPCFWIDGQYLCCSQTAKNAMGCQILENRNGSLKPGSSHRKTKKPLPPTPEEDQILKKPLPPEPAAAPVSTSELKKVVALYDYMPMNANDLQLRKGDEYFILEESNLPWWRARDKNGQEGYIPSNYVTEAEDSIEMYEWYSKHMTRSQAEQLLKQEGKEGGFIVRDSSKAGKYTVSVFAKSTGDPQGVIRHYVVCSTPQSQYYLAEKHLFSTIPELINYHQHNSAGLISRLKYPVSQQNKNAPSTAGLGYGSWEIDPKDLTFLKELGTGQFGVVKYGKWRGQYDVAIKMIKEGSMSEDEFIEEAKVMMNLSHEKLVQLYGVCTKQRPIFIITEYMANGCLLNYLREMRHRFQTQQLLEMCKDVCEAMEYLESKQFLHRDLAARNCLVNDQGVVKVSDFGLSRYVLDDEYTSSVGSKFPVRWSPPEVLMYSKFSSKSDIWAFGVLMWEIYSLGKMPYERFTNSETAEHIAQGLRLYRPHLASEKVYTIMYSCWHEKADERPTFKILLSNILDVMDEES
UniProt Q9UQM7, whole entry: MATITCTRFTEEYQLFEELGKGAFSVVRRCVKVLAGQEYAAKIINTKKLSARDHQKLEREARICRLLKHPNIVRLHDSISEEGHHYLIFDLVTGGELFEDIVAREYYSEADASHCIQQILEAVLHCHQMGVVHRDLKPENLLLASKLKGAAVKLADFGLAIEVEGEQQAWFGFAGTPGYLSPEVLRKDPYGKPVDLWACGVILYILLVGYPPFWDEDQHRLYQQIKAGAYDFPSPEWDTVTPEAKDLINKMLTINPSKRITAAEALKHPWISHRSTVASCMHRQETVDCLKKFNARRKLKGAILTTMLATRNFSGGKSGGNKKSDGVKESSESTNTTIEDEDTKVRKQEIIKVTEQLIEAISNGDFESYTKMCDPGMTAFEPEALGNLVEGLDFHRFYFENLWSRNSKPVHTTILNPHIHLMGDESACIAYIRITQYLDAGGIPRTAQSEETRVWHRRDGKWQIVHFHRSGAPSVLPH
UniProt Q13555: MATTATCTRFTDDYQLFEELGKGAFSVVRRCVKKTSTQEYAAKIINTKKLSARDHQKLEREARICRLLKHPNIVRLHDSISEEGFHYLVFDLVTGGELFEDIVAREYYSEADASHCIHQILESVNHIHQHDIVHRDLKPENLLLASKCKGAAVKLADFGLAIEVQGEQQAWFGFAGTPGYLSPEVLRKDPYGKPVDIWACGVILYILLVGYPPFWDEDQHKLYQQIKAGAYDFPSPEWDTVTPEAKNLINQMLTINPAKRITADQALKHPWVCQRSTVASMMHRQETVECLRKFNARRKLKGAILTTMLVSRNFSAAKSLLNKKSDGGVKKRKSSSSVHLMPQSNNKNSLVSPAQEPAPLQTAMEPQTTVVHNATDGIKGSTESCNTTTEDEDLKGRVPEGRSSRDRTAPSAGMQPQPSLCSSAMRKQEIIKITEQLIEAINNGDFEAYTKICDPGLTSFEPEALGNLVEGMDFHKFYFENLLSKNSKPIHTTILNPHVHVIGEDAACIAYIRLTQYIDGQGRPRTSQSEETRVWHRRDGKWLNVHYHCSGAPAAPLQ
UniProt Q15131: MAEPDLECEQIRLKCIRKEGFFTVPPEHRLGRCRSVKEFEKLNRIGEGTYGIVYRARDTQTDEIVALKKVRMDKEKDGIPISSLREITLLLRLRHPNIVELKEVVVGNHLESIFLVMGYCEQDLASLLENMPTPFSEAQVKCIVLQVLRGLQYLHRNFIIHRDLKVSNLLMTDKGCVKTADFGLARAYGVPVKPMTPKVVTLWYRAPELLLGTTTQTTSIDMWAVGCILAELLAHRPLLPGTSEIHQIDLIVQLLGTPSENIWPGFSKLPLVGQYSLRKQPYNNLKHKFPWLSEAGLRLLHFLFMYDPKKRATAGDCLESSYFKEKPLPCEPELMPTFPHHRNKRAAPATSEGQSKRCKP
UniProt Q00526: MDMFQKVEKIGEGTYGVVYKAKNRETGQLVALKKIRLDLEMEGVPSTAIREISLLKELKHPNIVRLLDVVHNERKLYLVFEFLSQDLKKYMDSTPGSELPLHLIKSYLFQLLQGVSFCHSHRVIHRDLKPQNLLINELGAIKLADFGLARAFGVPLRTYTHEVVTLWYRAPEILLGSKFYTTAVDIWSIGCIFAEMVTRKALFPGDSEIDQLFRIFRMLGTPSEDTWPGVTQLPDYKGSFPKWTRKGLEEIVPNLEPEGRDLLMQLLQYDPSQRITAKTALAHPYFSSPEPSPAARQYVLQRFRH
UniProt P11802: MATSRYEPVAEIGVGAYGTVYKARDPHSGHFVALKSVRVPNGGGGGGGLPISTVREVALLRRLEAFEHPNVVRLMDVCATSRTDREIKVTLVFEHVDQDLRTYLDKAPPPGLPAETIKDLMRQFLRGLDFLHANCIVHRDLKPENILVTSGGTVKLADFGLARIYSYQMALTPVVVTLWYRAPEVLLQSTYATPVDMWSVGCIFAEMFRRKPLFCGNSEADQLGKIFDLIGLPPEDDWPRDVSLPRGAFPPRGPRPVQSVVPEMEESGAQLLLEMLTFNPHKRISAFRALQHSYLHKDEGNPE
UniProt Q00535, whole entry, looked up: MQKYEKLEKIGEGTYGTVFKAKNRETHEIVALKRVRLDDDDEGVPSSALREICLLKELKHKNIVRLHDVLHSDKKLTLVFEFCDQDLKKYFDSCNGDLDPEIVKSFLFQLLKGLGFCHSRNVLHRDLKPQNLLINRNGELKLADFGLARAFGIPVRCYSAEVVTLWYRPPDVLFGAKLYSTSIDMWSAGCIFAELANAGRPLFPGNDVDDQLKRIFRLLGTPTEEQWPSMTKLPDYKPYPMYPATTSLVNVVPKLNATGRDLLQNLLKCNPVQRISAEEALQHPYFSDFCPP
UniProt Q00534, whole entry: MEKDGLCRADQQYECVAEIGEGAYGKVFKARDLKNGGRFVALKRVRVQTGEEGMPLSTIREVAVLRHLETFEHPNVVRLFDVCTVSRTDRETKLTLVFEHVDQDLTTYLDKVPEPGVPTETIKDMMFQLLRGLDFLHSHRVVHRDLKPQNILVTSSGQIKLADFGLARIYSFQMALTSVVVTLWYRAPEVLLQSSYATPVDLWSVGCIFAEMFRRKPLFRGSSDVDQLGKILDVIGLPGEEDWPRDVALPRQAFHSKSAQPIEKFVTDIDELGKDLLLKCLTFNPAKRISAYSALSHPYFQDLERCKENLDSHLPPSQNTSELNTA

Columns and labels:
Assay in all cases: kinase-Nluc reporter destabilization hit call (1 = scored as downregulated) (binary); higher = compound decreases kinase abundance
Details in all cases: K562; 2-18 h
BRAF_V600E = tested on: BRAF_V600E
BTK = BTK (UniProt Q06187)
CAMK2A = CAMK2A (UniProt Q9UQM7)
CAMK2G = CAMK2G (UniProt Q13555)
CDK10 = CDK10 (UniProt Q15131)
CDK2 = CDK2 (UniProt P24941)
CDK3 = CDK3 (UniProt Q00526)
CDK4 = CDK4 (UniProt P11802)
CDK5 = CDK5 (UniProt Q00535)
CDK6 = CDK6 (UniProt Q00534)

Measured: kinase-Nluc reporter destabilization hit call

COC(=O)[C@H](CCSC)NC(=O)c1ccc(NC[C@@H](N)CS)cc1-c1ccccc1 [FTI-277 (hydrochloride)] (10 µM)
inactive: BRAF_V600E 0 | BTK 0 | CAMK2A 0 | CAMK2G 0 | CDK10 = 0 | CDK2 = 0 | CDK3 = 0 | CDK4 = 0 | CDK5 = 0 | CDK6 = 0

Cn1ncc(NC(=O)c2nc(-c3c(F)cccc3F)sc2N)c1N1CC[C@@H](N)[C@H](F)CC1 (10 µM)
inactive: BRAF_V600E 0 | BTK 0 | CAMK2A 0 | CAMK2G 0 | CDK10 = 0 | CDK2 = 0 | CDK3 = 0 | CDK4 = 0 | CDK5 = 0 | CDK6 = 0

CC(Cc1ccc(O)c(O)c1)C(C)Cc1ccc(O)c(O)c1 (stereo not given) [Nordihydroguaiaretic acid] (2.5 µM)
inactive: BRAF_V600E 0 | BTK 0 | CAMK2A 0 | CAMK2G 0 | CDK10 = 0 | CDK2 = 0 | CDK3 = 0 | CDK4 = 0 | CDK5 = 0 | CDK6 = 0
